Data on 1 sequence can be found in paper PMC8660804.

Amino acid sequences for entries named in this document (tags omitted). Residues count along the entry.
UniProt P02769, 25-607: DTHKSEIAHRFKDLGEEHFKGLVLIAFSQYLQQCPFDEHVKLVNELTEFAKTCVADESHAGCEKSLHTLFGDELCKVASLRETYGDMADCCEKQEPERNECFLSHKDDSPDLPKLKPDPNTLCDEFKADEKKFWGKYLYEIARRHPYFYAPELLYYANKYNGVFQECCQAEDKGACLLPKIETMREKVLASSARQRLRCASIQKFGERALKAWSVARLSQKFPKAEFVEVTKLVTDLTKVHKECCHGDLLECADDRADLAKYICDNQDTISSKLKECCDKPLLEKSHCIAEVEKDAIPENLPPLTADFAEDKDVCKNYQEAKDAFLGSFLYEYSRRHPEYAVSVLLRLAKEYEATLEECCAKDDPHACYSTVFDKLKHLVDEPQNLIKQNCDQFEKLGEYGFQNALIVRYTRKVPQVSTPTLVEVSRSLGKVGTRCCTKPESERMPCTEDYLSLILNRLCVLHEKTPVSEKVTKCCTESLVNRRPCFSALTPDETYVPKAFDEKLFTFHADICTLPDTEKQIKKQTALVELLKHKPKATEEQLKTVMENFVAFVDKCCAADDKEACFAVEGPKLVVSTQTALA

Data set [1] concerns Anabaena sensory rhodopsin transducer (ASRT) (Anabaena). The data set can be described thus: single-molecule FRET DNA cyclization (looping). The conditions noted are these: NaCl series, looping maximal at 50 mM Na+, Mg2+ essential for looping; NaCl varied (50 mM optimal; 1 M also used), 10 mM MgCl2 (stated for BSA control), 60 min incubation; recombinant protein.
For data set [2], the target named is Bovine serum albumin (BSA) (bovine) (UniProt P02769). The experiment in a line: single-molecule FRET DNA cyclization (looping). Particulars: 100 uM BSA, 50 mM NaCl, 10 mM MgCl2, 60 min, read-out is bending; NaCl varied (50 mM optimal; 1 M also used), 10 mM MgCl2 (stated for BSA control), 60 min incubation; commercial protein.

For some assays here: A negative result means that nothing was seen under these conditions. For some assays here: The exact form of at least one protein or probe is not confirmed. For some assays here: At least one verdict was read from the data and is not stated in words by the source.

As for “CAGAATCCGTGAATATTTGTTTTCTAAATAGTAAGAATAATTGCAATCGACCTTATAAAAAGCTGCAATGACCTTTAGGAGGAAAGAAAGATGCTCGATGCTTTTTCCAAA / ACGGATTCTGTTTTGGAAAAAGCATCGAGCATCTTTCTTTCCTCCTAAAGGTCATTGCAGCTTTTTATAAGGTCGATTGCAATTATTCTTACTATTTAGAAAACAAATATTC [DNA1 (pec promoter)]”, the binding result is on record as “binds” in data set [1] and “no binding” in data set [2].
